Test results taken from paper PMC9764255.
Read-outs that look alike come from different tables or passages of the source. Results are given in words; binding and its absence hold for the method and conditions named. Binding seen in cells or lysates may run through a third protein. These calls come from enrichment with a bait or labelling near it, and not all partners need be listed. No binding means not detected with the bait.

The chains behind the UniProt entries cited, without tags or fusion partners.
UniProt P29255: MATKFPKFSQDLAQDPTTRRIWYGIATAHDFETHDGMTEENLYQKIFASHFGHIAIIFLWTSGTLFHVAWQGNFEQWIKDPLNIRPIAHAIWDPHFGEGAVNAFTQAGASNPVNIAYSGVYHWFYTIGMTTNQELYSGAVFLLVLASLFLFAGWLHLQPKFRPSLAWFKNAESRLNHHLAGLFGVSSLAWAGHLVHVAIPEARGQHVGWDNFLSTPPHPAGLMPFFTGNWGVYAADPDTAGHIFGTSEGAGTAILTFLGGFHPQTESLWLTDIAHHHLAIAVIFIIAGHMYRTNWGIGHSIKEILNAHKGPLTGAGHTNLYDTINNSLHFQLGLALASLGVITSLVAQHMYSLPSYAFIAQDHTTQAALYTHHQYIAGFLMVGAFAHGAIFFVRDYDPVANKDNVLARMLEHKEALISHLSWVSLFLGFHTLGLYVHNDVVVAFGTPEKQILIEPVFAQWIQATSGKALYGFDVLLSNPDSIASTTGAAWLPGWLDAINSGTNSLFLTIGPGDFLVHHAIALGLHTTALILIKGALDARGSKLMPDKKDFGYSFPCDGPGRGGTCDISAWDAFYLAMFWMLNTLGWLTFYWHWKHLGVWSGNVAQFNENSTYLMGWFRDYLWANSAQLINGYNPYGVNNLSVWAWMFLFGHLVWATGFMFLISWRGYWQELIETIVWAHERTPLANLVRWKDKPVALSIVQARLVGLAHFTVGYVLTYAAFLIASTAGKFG
UniProt P29254: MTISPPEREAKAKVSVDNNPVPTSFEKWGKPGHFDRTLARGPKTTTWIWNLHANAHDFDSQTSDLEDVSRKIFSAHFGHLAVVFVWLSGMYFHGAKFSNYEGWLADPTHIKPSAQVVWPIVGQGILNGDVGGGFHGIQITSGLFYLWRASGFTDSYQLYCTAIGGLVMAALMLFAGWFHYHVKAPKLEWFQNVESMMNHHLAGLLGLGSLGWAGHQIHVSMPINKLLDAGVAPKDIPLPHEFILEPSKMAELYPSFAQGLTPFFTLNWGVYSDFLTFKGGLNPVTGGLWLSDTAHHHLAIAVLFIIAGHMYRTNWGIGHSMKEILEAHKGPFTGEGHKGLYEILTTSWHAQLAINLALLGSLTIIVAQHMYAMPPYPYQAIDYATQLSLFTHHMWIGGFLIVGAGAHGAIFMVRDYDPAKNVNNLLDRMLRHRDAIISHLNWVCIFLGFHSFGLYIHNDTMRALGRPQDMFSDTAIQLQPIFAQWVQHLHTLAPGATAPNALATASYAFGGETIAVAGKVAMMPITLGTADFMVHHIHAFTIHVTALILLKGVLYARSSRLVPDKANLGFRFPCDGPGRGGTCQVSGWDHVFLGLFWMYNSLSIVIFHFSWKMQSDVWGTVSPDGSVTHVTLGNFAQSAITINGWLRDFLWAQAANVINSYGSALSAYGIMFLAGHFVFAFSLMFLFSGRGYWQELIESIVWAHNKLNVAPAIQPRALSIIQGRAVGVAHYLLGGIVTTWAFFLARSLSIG

T1: PsbO-APEX2 (Synechocystis sp. PCC6803) (UniProt P10549)
T1 sequence: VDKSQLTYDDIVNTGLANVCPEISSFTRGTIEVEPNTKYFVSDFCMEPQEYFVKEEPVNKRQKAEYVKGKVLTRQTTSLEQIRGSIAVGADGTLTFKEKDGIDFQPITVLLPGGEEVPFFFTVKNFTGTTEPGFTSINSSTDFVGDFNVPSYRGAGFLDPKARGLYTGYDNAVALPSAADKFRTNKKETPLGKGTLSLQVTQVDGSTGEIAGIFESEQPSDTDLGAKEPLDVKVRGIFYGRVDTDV


What was measured:
[1] = target: T1, PsbO-APEX2 (Synechocystis sp. PCC6803); assay: proximity labelling; PsbO-APEX2 knock-in Synechocystis cells, 2 mM biotin phenol 10 min at 30 °C, 2 mM H2O2 1 min; lysate denatured (methanol/chloroform, 0.1% SDS), streptavidin-agarose enrichment, on-bead trypsin digestion, label-free LC-MS/MS; hits filtered against three negative controls (no BP, WT, Zwf-APEX2), p < 0.05 and fold-change of two
[2] = target: T1, PsbO-APEX2 (Synechocystis sp. PCC6803); assay: as above; remark: listed apart in the source

Row | Molecule | binding [1] | binding [2]
1 | PsaB (from UniProt P29255 1-731) | no binding | 
2 | PsaA (from UniProt P29254 1-751) | no binding | 
3 | AtpF (protein, UniProt P27181 1-179) MLNTLFILAAEAHEAGEGGFGINLDFLEANLFNLAILLGIIIYYAPKTLGKILGDRRQKIADAIEEAETRQRKSAQILAEEEKKLAQAKAEAARIVQEAGQRAEVAKQEIATQTEADLRRMQEAAAQDLGAEQERVIAELKRRIAEQAVAKAEADLRDRLNEDTQDRLIERSIAQLGGR |  | no binding
4 | FtsH1 (enzyme, UniProt P73179 1-665) MSHRPRSDRHSFSSPSRFWHRLGMGLLVAGTLALPVSTLAQEGGEGAQPKASPSPIQSPNSSNGEATPRSFFNSGSPRSAEPKMNYGQLIDAIKANQVAKVEVDTNRRQAIVTLKDAPPGSKPQTVQLLDNNPELLNLLRSRSETIDLDINRTPDNSALYGLLTNLLVVAILIGLVVMVVRRSANASGQAMSFGKSKARFQMEAKTGVGFDDVAGIDEAKEELQEVVTFLKQPEKFTAIGAKIPRGVLLIGPPGTGKTLLAKAIAGEAGVPFFSISGSEFVEMFVGVGASRVRDLFKKAKENAPCLVFIDEIDAVGRQRGVGYGGGNDEREQTLNQLLTEMDGFEGNSGIIVIAATNRPDVLDLALLRPGRFDRQVTVDYPDVQGRELILAIHAQNKKLHEEVQLAAIARRTPGFTGADLANVLNEAAIFTARRRKEAITMAEVNDAIDRVVAGMEGTPLVDSKSKRLIAYHEVGHALIGTLCPGHDPVEKVTLIPRGQAQGLTWFTPDEDQSLMTRNQMIARIAGLLGGRVAEEVIFGDDEVTTGAGNDIEKITYLARQMVTKLGMSSLGLVALEEEGDRNFSGGDWGKRSEYSEDIAARIDREIQAIVTAAHQRATRIIEENRNLMDLLVDALIDQETIEGEHFRQLVESYQQSQKQPALAGK |  | no binding

Other lines, results leading:

Row | binding [1] | binding [2] | Molecule
5 |  | no binding | AtpG (protein, UniProt P27183 1-143) MFDFDATLPLMALQFVVLAFLLNAIFYKPMNKVLDERADYIRTNEEDARERLAKAKAITQEYEQQITDARRQSQAVIADAQAEARRLAAEKIAEAQRESQRQKETAAQEIEAQRQSALSSLEQEVAALSNQILHKLLGPELIK
6 |  | no binding | PsaF (protein, UniProt P29256 24-165) DDFANLTPCSENPAYLAKSKNFLNTTNDPNSGKIRAERYASALCGPEGYPHLIVDGRFTHAGDFLIPSILFLYIAGWIGWVGRSYLIEIRESKNPEMQEVVINVPLAIKKMLGGFLWPLAAVGEYTSGKLVMKDSEIPTSPR
